{"source": "paper PMC6209770", "about": "(Frontiers in Pharmacology, 2018)", "details": "mouse, in vivo, ip, 5 mg/kg"}
{"smiles": "COc1ccccc1N1CCN(CCCOc2cc(C)ccc2C)CC1.Cl", "note": "[HBK-17, 1-[(2,5-dimethylphenoxy)propyl]-4-(2-methoxyphenyl)piperazine hydrochloride]", "values": [{"measurement": "AUC0→∞ in brain", "value": 23860, "unit": "ng·min/g"}]}
